Laboratory results published in US20120041175A1.
Results are given in words; binding and its absence hold for the method and conditions named. Binding seen in cells or lysates may run through a third protein. Some entries that bind do so weakly or less than the wild type. For some of these results: Where a sequence is shown, tags or fusion partners need not be part of it.

Sequences of proteins named here, by UniProt entry; tags and fusion partners are left off. A change or cut given only in a name is not applied to a line headed by its entry.
UniProt Q14457: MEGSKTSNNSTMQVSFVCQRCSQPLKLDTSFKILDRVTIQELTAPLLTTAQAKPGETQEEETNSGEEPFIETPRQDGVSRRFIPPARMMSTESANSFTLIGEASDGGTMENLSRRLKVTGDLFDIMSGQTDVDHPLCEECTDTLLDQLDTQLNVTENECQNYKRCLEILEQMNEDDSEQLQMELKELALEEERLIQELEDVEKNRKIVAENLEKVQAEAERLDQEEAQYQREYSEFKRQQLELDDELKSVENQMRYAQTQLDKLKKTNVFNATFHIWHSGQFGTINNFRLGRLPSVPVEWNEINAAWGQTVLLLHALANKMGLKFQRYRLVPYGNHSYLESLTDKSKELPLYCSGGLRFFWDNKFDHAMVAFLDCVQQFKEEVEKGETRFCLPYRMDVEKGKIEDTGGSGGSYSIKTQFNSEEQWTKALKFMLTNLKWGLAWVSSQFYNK
UniProt Q8CDJ3: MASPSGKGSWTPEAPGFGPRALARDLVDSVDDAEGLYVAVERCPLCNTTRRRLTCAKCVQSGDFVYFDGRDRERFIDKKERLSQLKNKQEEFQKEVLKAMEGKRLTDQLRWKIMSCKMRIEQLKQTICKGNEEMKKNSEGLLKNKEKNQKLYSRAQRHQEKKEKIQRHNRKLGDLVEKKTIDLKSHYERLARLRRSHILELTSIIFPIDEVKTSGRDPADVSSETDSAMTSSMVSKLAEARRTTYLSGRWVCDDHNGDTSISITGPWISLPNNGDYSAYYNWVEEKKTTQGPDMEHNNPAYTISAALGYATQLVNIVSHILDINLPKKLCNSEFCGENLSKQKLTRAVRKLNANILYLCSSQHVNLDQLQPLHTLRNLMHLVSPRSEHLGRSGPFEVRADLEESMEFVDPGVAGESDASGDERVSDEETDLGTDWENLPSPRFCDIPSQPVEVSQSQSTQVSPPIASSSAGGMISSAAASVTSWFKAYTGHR
UniProt O88597: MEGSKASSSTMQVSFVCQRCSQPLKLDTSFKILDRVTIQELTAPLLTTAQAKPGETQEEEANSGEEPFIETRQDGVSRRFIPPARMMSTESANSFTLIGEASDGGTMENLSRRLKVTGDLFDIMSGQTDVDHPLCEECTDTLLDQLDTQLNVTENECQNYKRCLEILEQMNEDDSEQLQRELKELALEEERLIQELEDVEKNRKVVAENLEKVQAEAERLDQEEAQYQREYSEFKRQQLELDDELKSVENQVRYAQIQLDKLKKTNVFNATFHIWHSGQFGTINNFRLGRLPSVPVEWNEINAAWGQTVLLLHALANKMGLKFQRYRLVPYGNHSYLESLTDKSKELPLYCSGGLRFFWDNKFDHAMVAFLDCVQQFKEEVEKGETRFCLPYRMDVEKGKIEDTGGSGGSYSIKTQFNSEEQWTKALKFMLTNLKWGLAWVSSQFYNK

How the values were obtained:
[1] = biological target: endogenous Beclin 1 of HEK 293 / HEK 293T cells (human) (UniProt Q14457); assay: co-IP with anti-GFP antibody from transfected HEK 293T cells; anti-Beclin 1 blot
[2] = biological target: endogenous Beclin 1 of HEK 293 / HEK 293T cells (human) (UniProt Q14457); assay: co-IP with anti-GFP antibody from transfected HEK 293T cells; anti-Beclin 1 blot of endogenous Beclin 1
[3] = biological target: T1, Rubicon-EGFP (full-length mouse Rubicon tagged with EGFP at the C-terminus) (mouse) (UniProt Q80U62); assay: refers to the co-IP of FIG. 2
T1 sequence: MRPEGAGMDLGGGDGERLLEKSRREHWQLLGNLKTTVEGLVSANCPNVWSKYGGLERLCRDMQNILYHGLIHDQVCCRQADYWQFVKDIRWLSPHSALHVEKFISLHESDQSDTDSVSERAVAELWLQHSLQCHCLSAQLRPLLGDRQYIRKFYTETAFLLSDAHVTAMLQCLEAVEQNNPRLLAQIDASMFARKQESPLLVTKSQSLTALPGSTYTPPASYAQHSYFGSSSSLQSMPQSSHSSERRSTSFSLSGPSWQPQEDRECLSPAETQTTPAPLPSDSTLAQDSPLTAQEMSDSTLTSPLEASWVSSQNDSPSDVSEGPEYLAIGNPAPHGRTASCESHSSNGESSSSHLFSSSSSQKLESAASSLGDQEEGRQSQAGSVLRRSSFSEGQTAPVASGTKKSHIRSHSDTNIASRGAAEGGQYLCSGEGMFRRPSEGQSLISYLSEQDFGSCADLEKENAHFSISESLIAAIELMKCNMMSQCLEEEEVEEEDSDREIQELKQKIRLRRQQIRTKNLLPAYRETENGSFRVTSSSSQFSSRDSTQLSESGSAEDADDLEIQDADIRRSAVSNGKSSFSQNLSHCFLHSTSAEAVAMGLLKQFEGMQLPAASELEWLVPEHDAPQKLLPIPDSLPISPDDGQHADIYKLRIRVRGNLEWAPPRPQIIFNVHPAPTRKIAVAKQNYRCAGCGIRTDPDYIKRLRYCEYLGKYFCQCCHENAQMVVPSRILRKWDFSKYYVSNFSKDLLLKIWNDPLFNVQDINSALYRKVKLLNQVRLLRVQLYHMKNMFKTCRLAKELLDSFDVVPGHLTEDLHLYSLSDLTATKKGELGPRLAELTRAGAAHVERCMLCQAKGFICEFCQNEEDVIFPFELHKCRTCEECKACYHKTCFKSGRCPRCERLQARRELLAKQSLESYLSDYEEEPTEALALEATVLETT

[4] = biological target: T1, Rubicon-EGFP (full-length mouse Rubicon tagged with EGFP at the C-terminus) (mouse); assay: co-IP with anti-GFP antibody from co-transfected HEK 293T cells; anti-FLAG blot

binding [1]	binding [2]	binding [3]	binding [4]	Substance
binds	binds	–	–	ATG14L ΔCCD1 mutant, EGFP-tagged (deletion of the N-terminal CCD1) (from UniProt Q8CDJ3 99-492)
–	–	binds	binds	FLAG-Beclin 1-CE (FLAG-tagged Beclin 1 mutant containing coiled-coil and evolutionarily conserved domains) (from UniProt O88597 144-448)
